Results from publication PMC9065199.
Results are given in words; binding and its absence hold for the method and conditions named. In cells and extracts the contact can be indirect. A yes stands for co-enrichment or nearness to the bait. Other partners may have been found. Where a sequence is shown, tags or fusion partners need not be part of it.

Sequences of proteins named here, by UniProt entry; tags and fusion partners are left off. Residues count along the entry.
UniProt O95299, residues 36-355: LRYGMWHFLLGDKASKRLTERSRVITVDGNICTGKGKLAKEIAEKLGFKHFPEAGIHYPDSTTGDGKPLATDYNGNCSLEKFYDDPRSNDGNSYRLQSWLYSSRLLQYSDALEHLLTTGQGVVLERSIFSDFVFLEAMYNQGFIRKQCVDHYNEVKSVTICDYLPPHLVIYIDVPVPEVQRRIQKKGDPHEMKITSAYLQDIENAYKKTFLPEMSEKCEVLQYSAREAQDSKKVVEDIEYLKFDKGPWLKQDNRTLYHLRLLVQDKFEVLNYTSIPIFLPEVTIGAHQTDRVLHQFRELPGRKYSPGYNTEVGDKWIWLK

Molecular target: T1, Acylglycerol kinase (AGK), full-length, Flag-tagged (UniProt Q53H12)
T1 sequence: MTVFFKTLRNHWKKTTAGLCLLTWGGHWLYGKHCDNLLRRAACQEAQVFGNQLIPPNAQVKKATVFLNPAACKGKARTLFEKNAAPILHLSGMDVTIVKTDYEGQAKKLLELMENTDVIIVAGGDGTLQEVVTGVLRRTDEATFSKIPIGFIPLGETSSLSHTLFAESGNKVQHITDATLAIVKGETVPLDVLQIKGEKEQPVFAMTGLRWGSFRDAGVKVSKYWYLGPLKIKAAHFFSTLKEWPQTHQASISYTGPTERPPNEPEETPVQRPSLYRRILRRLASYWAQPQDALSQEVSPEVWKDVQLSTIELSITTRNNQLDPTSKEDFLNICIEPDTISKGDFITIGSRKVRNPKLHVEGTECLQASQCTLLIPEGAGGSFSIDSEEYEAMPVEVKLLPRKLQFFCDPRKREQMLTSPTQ
Experiment: affinity purification with mass spectrometry; HEK293T cells transfected with AGK-Flag or vector; Coomassie-stained gel, MS/MS of bands

## NDUFA10, mitochondrial respiratory chain complex I subunit (endogenous, HEK293T) (from UniProt O95299 36-355)
  binding: binds
